Measurements published in publication doi:10.1101/2022.09.22.509111.
Results are given in words; binding and its absence hold for the method and conditions named. Some entries that bind do so weakly or less than the wild type. For some assays here: Where a sequence is shown, tags or fusion partners need not be part of it.

Columns and labels:
SUMO-42-serine-Halo = experiment: pelleting by ultracentrifugation
[1] = target: 42-serine-Halo (SUMO tag removed by TEV); experiment: pelleting by ultracentrifugation

binding (SUMO-42-serine-Halo) | binding [1] | Binder
binds | – | SSSSSSSSSSSSSSSSSSSSSSSSSSSSSSSSSSSSSSSSSS (JF549 Halo ligand on the Halo tag (lysate was labeled before purification)) [SUMO-42-serine-Halo]
– | binds | SSSSSSSSSSSSSSSSSSSSSSSSSSSSSSSSSSSSSSSSSS (JF549 Halo ligand on the Halo tag (lysate was labeled before purification)) [42-serine-Halo (SUMO tag removed by TEV)]
